Reference: US20200384107A1
No constants are given. Whether binding was seen depends on the method and setting. Some binding calls cover weakened binding; strength is not graded here. One block for each binder: values may come before it.

Sequences of proteins named here, by UniProt entry; tags and fusion partners are left off. A change or cut given only in a name is not applied to a line headed by its entry. A line that says so, or that is headed by a name, gives the form on record, which may keep a tag or linker.
rhesus CD40, recombinant (F6SNI1, form named): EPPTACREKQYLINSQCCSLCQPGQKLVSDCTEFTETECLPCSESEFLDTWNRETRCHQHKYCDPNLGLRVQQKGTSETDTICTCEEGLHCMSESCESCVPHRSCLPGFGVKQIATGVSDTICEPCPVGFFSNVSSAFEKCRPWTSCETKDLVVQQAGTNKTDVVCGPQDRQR
UniProt P25942: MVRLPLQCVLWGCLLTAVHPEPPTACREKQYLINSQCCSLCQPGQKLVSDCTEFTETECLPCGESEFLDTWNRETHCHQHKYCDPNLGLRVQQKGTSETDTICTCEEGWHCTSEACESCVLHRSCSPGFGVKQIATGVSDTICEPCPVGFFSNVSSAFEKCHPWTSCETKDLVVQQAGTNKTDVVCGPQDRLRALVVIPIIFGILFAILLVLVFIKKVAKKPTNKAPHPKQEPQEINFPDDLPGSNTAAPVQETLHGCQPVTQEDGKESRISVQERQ

Tests used:
[1] = biological target: rhesus CD40 on rhesus macaque B cells (CD20+ cells of PBMCs or blood) (rhesus) (UniProt F6SNI1); assay: receptor occupancy on blood B cells of treated rhesus monkeys, flow cytometry
[2] = biological target: rhesus CD40 on rhesus macaque B cells (CD20+ cells of PBMCs or blood) (rhesus) (UniProt F6SNI1); assay: receptor occupancy on blood B cells of treated rhesus monkeys, flow cytometry with labeled 2C10
[3] = biological target: rhesus CD40 on rhesus macaque B cells (CD20+ cells of PBMCs or blood) (rhesus) (UniProt F6SNI1); assay: receptor occupancy on blood B cells of treated rhesus monkeys
[4] = biological target: rhesus CD40 on rhesus macaque B cells (CD20+ cells of PBMCs or blood) (rhesus) (UniProt F6SNI1); assay: receptor occupancy by flow cytometry: blood of rhesus monkeys 28 days after one intravenous dose of h2C10, stained with fluorescently labeled 2C10 and anti-CD20
[5] = biological target: rhesus CD40 on rhesus macaque B cells (CD20+ cells of PBMCs or blood) (rhesus) (UniProt F6SNI1); assay: receptor occupancy on blood B cells of treated rhesus monkeys (10 or 25 mg/kg)
[6] = biological target: human CD40-MBP fusion (human) (UniProt P25942+P0AEX9); assay: SPR, BIACore 3000, h2C10 amine-coupled to a CM5 chip, CD40-MBP in solution
[7] = biological target: rhesus CD40 on rhesus macaque B cells (CD20+ cells of PBMCs or blood) (rhesus) (UniProt F6SNI1); assay: flow cytometry, fluorochrome-conjugated 2C10 and anti-CD20 on PBMCs
[8] = biological target: rhesus CD40 on rhesus macaque B cells (CD20+ cells of PBMCs or blood) (rhesus) (UniProt F6SNI1); assay: flow cytometry of rhesus PBMCs stained with fluorochrome-conjugated 2C10 and an anti-CD20 antibody
[9] = biological target: rhesus CD40, recombinant (rhesus) (UniProt F6SNI1); assay: ELISA, rhesus CD40 adsorbed to the plate, detection with goat anti-mouse IgG-HRP
[10] = biological target: rhesus CD40 on rhesus macaque B cells (CD20+ cells of PBMCs or blood) (rhesus) (UniProt F6SNI1); assay: flow cytometry on PBMCs
[11] = biological target: rhesus CD40, recombinant (rhesus) (UniProt F6SNI1); assay: ELISA, CD40 adsorbed to plates, goat anti-mouse IgG-HRP
[12] = biological target: rhesus CD40 on rhesus macaque B cells (CD20+ cells of PBMCs or blood) (rhesus) (UniProt F6SNI1); assay: flow cytometry of blood of untreated control rhesus monkeys, day 28, stained with fluorescently labeled 2C10 and anti-CD20

binding [1]: binds
binding [2]: binds
binding [3]: binds
binding [4]: binds
binding [5]: binds
B1: humanized 2C10 in the stabilized IgG4 (S241P) format (antibody, V domains shown)
VH: QVQLVQSGAEVKKPGASVKVSCKASGYTFTNYWMHWVRQAPGQRLEWIGYINPSNDYTKYNQKFKDRATLTADKSANTAYMELSSLRSEDTAVYYCARQGFPYWGQGTLVTVSS
VL: EIVLTQSPATLSLSPGERATLSCSASSSVSYMHWYQQKPGQAPRRWIYDTSKLASGVPARFSGSGSGTDYTLTISSLEPEDFAVYYCHQLSSDPFTFGGGTKVEIKR

binding [6]: binds
B2: humanized 2C10, clone 2.189.2 (2C10_h3 + 2C10_l2) (antibody, V domains shown)
VH: B1 VH
VL: EIVLTQSPATLSLSPGERATLSCSASSSVSYMHWYQQKPGQAPRRWIYDTSKLASGVPARFSGSGSGTDYTLTISSLEPEDFAVYYCHQLSSDPFTFGGGTKVEIK

binding [7]: binds
binding [8]: binds
binding [9]: binds
binding [10]: binds
binding [11]: binds
binding [12]: binds
B3: 2C10 (murine anti-CD40 monoclonal antibody) (antibody, V domains shown)
VH: QVQLQQSGAELAKPGASVKMSCKASGYTFTNYWMHWVKQRPGQGLEWIGYINPSNDYTKYNQKFKDKATLTADKSSNTAYMQLGSLTSEDSAVYYCARQGFPYWGQGTLVTVSA
VL: QIVLTQSPAIMSASPGEKVTMTCSASSSVSYMHWYHQRSGTSPKRWIYDTSKLASGVPARFSGSGSGTSYSLTISSMEAEDAATYYCHQLSSDPFTFGSGTKLEIK
